One substance from paper PMC12305709, “Functional investigation of the RNA helicase MOV10 with respect to its interplay with factors involved in nonsense-mediated mRNA decay” (The Journal of Biological Chemistry, 2025) can be followed below.

No constants are given. Whether binding was seen depends on the method and setting. Binding seen in cells or lysates may run through a third protein. Binding calls can cover weak binding; strength is not graded here. Where a sequence is shown, tags or fusion partners need not be part of it.

The target of experiment [1] is T1, Flag-tagged full-length UPF1 (human) (UniProt Q92900).
T1 sequence: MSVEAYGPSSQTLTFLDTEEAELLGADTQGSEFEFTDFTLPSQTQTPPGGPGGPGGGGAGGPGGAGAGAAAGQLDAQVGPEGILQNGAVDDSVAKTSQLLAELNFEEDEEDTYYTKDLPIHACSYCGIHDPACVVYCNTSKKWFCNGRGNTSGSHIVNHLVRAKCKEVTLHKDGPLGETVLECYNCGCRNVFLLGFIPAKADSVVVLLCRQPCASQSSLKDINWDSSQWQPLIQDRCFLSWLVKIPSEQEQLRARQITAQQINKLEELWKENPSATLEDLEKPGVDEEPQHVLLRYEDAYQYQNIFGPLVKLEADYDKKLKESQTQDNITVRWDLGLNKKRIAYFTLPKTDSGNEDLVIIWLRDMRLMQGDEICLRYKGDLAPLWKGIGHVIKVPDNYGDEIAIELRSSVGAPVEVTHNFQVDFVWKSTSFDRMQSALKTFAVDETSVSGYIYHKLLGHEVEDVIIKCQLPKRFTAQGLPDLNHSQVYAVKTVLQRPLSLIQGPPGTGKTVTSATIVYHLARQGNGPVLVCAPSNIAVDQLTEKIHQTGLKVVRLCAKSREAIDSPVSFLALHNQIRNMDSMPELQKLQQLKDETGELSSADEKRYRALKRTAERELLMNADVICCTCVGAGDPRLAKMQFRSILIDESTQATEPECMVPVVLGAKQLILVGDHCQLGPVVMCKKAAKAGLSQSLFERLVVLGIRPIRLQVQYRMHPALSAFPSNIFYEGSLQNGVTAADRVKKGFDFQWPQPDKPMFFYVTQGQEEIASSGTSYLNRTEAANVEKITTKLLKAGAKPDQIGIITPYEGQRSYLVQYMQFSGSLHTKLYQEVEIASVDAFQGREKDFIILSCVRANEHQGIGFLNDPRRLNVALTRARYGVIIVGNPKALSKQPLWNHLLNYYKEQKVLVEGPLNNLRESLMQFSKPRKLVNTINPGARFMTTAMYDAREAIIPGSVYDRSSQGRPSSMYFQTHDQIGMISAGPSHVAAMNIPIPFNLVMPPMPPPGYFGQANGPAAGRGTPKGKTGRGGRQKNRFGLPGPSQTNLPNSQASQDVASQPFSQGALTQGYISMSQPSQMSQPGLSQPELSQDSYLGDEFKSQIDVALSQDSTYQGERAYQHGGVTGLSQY
In words: co-IP; as a2, but cell lysates treated with RNase A (60 ug/uL, 10 min, 25 C); SDS-PAGE, Coomassie, densitometry of the UPF2 band; both purified.

The target of experiment [2] is T1, Flag-tagged full-length UPF1 (human). In words: co-IP; Flag-tagged bait immunopurified from HEK293 lysate on anti-Flag M2 agarose, 4-8 ug purified prey added for 45 min; washed with 20 mM Hepes pH 7.5, 70 mM NaCl, 10% glycerol, 1 mM MgCl2, 1 uM ZnCl2; SDS-PAGE, Coomassie; without RNase A; both purified.

Take UPF3 (human): the binding result in experiment [1] and in experiment [2] was “binds” in each case.
